Publication PMC7819943, “Rice protein-binding microarrays: a tool to detect cis-acting elements near promoter regions in rice”
Some of the results follow.

The chains behind the UniProt entries cited, without tags or fusion partners.
UniProt Q0JBA9, entry or part of it: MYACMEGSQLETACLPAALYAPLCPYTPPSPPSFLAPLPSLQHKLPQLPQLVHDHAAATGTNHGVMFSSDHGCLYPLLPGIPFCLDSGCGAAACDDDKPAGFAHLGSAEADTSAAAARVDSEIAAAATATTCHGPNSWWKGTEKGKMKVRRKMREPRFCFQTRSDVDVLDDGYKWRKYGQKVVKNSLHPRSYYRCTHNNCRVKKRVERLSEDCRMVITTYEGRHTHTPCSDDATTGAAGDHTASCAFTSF

target: OsWRKY34 (Oryza sativa, UniProt Q0JBA9 1-250); assay: protein-binding microarray (RPBM); PBS, 2% BSA, 51.3 ng/ul salmon testes DNA, 50 uM zinc acetate, 200 nM TF, 25 C, 1 h; high values mean tight binding; details: protein: recombinant; tags: N-terminal polyhistidine and DsRed monomer fusion (pET32a); label: CyDye5-dUTP incorporated in the synthesized complementary strand; 3' TTTTT single-stranded linker to array surface; dsDNA, one strand shown
Summary of the method: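 Binding signal is reported as fluorescence intensity per feature (arbitrary units) from an Axon 4000B scanner. Incubation used 200 nM of each Ni–NTA-purified, N-terminally polyhistidine- and DsRed-fused transcription factor from E. coli BL21-CodonPlus on a double-stranded custom Agilent array for 1 h at 25 °C, with 50 µM zinc acetate in the buffer, followed by washing.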

Sequence | binding signal
ATCGGGTCGGTCGCTTATCGTCTTCGCCTTCCGCCAGGAGCGGAGTCACCTAGTGCAG | 11800 fluorescence intensity (a.u.)
TTCTTGCTCCAATCTCCTCTTGTTTTCTTGCTGGGAGTTGCGGAGTCACCTAGTGCAG | 8560 fluorescence intensity (a.u.)
TAGTTTCTTCATTTTTATGATTTTATCCAATGCTATTTTTCGGAGTCACCTAGTGCAG | 9440 fluorescence intensity (a.u.)
CCGATCCGACCCAACCATCTTCTTCCTCGCGTCGCCTCGCCGGAGTCACCTAGTGCAG | 8420 fluorescence intensity (a.u.)
ACTTCGTCGTCTTCCTCTGCTGCTTCCTTCTCCTCCAAGCCGGAGTCACCTAGTGCAG | 8250 fluorescence intensity (a.u.)
ATATCGAGTATTTCTCAGTTCTCACAATTTGGATTTCAGTCGGAGTCACCTAGTGCAG | 8640 fluorescence intensity (a.u.)
TATGGTGCTCATTTCTCGAGGGATGTGATTTCAGTTTCAACGGAGTCACCTAGTGCAG | 8430 fluorescence intensity (a.u.)
TCACAAGTCACCAAGACAACCGCACTTGCACTATCCGCATCGGAGTCACCTAGTGCAG | 8040 fluorescence intensity (a.u.)
TACATGCAAACTGTACAATTATTTTTTTTCGTCCACATTTCGGAGTCACCTAGTGCAG | 10400 fluorescence intensity (a.u.)
TCAAACGCGCCAATCCGACCGTTACCCACATTAAAAAAAACGGAGTCACCTAGTGCAG | 8700 fluorescence intensity (a.u.)
TATATAGATACTGGCCATGTTTAGTTCGCTGTCCAATTTTCGGAGTCACCTAGTGCAG | 11700 fluorescence intensity (a.u.)
TACTCCTCCTCATTGGCCAAATGGTCATCACTCTGTCTTCCGGAGTCACCTAGTGCAG | 8350 fluorescence intensity (a.u.)
CCTCTAGGATTGTCGTGGCTATGGCATATCTCGTGTGTGACGGAGTCACCTAGTGCAG | 8370 fluorescence intensity (a.u.)
AAAAGCACTATTCACCCCAAATTTGTCTTTTTTTTTCTCTCGGAGTCACCTAGTGCAG | 8560 fluorescence intensity (a.u.)
TCTGCCACTGTCGTCGAGCTCGCATTCCGTTCCGCCATTGCGGAGTCACCTAGTGCAG | 9430 fluorescence intensity (a.u.)
TTGGAGAGGCACATGCTGATGAGGCGGAGGAGGGGCGGCGCGGAGTCACCTAGTGCAG | 9320 fluorescence intensity (a.u.)
CAATTTTGTCTTTTTGAAATTTCTCTATCCTCTTTTTATACGGAGTCACCTAGTGCAG | 11900 fluorescence intensity (a.u.)
AGGGGTATTTTGGTCATTTCGACAAATTTGTACAGTACTACGGAGTCACCTAGTGCAG | 10300 fluorescence intensity (a.u.)
ATTTTGTCATTTCGATTCACACTTGCGCTGTAGCCGAATTCGGAGTCACCTAGTGCAG | 11200 fluorescence intensity (a.u.)
ACACGGGTGGGTAACAATTACATGGCTGAGAGCAGATGACCGGAGTCACCTAGTGCAG | 9840 fluorescence intensity (a.u.)
CCTACGATCTACGGCCTTGTTTGGCAGTTCTGCTTGGTTTCGGAGTCACCTAGTGCAG | 9980 fluorescence intensity (a.u.)
TGTTTCTGTCTGTCCACCCTGCTGCTGCTGCCTCGTTTGACGGAGTCACCTAGTGCAG | 9640 fluorescence intensity (a.u.)
TTCTTTTGGCCCTTGCACACTCCTGAACCGCAGATTTCTACGGAGTCACCTAGTGCAG | 11600 fluorescence intensity (a.u.)
ACTAATTCGCCTACGACTTCTCACACACAAAGCTTCCCTTCGGAGTCACCTAGTGCAG | 8570 fluorescence intensity (a.u.)
CCTTGGGCCAATTCCATACCCTCATGTAAGCCCATTCACTCGGAGTCACCTAGTGCAG | 9300 fluorescence intensity (a.u.)
TGGTGGTCGGCATCGTTGAGTGGTGTGGGATGAGAAGCGGCGGAGTCACCTAGTGCAG | 9030 fluorescence intensity (a.u.)
CACTTACTGACGTAAACAGCAGAATATTTCCTGTGTATTGCGGAGTCACCTAGTGCAG | 8160 fluorescence intensity (a.u.)

Sequence | binding signal
ACTGTCTCGTATTCTATTCCTCATTCCTTCTCTTTTTTTCCGGAGTCACCTAGTGCAG | 19600 fluorescence intensity (a.u.)
ACACACGTCGTTATGTTGATTTTATTATATTTTTAAAAAACGGAGTCACCTAGTGCAG | 8450 fluorescence intensity (a.u.)
TCTCCCATCTATCCTCTGTGCATTCCGCTTTACTGCTCTCCGGAGTCACCTAGTGCAG | 8450 fluorescence intensity (a.u.)
CTCTGTTCCGTTCACTTTACGCATCTCAACCTATCGCTGTCGGAGTCACCTAGTGCAG | 11900 fluorescence intensity (a.u.)
TTAGATCAATTTTGCATGTGTGTTGTTTTGTACTAGGTTCCGGAGTCACCTAGTGCAG | 9600 fluorescence intensity (a.u.)
ACGCACTTGACCCCTTCGTTACCCTAAATCCTAATGCCGTCGGAGTCACCTAGTGCAG | 8620 fluorescence intensity (a.u.)
GCGGGTGGGTGGCAGGGTGGGTATACGTACACGTCTCCGACGGAGTCACCTAGTGCAG | 15800 fluorescence intensity (a.u.)
CTGTTACCATCCATGTTTCAATTCCTTAGCATGTCACCCTCGGAGTCACCTAGTGCAG | 8110 fluorescence intensity (a.u.)
GCTCGTTGTCATGCTCTCCCATTCCATGGCTCCATCCATTCGGAGTCACCTAGTGCAG | 12400 fluorescence intensity (a.u.)
GCCAATCTTCTTTGCAGTTTGCATTACCATGCAACTCACCCGGAGTCACCTAGTGCAG | 8560 fluorescence intensity (a.u.)
ATATTACTGGTGTTTACTTGCTTTTCTTTTTTTAAAAAAACGGAGTCACCTAGTGCAG | 9160 fluorescence intensity (a.u.)
CTTATCTTTCTTTATGTTGTTGCTACGAAGGTATAGACTTCGGAGTCACCTAGTGCAG | 9340 fluorescence intensity (a.u.)
GTTGGGAGGAGGGCAAGGTGCTTAGGGTTTTACATTTCACCGGAGTCACCTAGTGCAG | 10600 fluorescence intensity (a.u.)
TGATGTTGTATTCCGAGGAAGACCACCTTCAATTGCTTCACGGAGTCACCTAGTGCAG | 8260 fluorescence intensity (a.u.)
CTCATCAGTGATGAGGCCTTCAACAATCCATCGTCTTACTCGGAGTCACCTAGTGCAG | 8230 fluorescence intensity (a.u.)
GTCCACGTTGCCCATCTTCTCGTGTACTACTCTGGCTGGCCGGAGTCACCTAGTGCAG | 8860 fluorescence intensity (a.u.)
TTCTCATCTCAATCCCATATTCCCATCCTTATCTTCGGTTCGGAGTCACCTAGTGCAG | 8900 fluorescence intensity (a.u.)
CTTTGTTGCACTTTTTCGTATTGGAGTGTTTTATTCTTTCCGGAGTCACCTAGTGCAG | 8760 fluorescence intensity (a.u.)
TTTATACCAAAGGCCATTTTCTGTTGCATTGAGTGGTTGCCGGAGTCACCTAGTGCAG | 9400 fluorescence intensity (a.u.)
GCGCTAGAGTCCTTACTAAATTTTGCAGTTCTAGAAGCTTCGGAGTCACCTAGTGCAG | 9350 fluorescence intensity (a.u.)
AAGCTATGATACATATTACTCTTTTACGGTTCTACTATAGCGGAGTCACCTAGTGCAG | 8670 fluorescence intensity (a.u.)
ACTGTATCATCATTGATTTGTGTTGATGTTCTTACTTATACGGAGTCACCTAGTGCAG | 8490 fluorescence intensity (a.u.)
TTCGTTCGTCCCACCGCTGCTGCATGCCATCCCTGACACCCGGAGTCACCTAGTGCAG | 10100 fluorescence intensity (a.u.)
TCTTCGTAATGTTTTTCTCCTTCTCCATGTGGGCGCCCATCGGAGTCACCTAGTGCAG | 9620 fluorescence intensity (a.u.)
GGAGTTGACTCATTTTCTTTATCTTCTTTCTACCCTTTTTCGGAGTCACCTAGTGCAG | 10600 fluorescence intensity (a.u.)
ACTATTTCGCTATTTCAAGTCATTTTTATACTTTCCAATTCGGAGTCACCTAGTGCAG | 10500 fluorescence intensity (a.u.)
GTGTTTTGACGCATGCATGCCGTTGGTCATCAGTTAATCACGGAGTCACCTAGTGCAG | 8770 fluorescence intensity (a.u.)

Not a retest: entries from further up.
Sequence | binding signal
GCTCGTTGTCATGCTCTCCCATTCCATGGCTCCATCCATTCGGAGTCACCTAGTGCAG | 12400 fluorescence intensity (a.u.)
GCCAATCTTCTTTGCAGTTTGCATTACCATGCAACTCACCCGGAGTCACCTAGTGCAG | 8560 fluorescence intensity (a.u.)
ATATTACTGGTGTTTACTTGCTTTTCTTTTTTTAAAAAAACGGAGTCACCTAGTGCAG | 9160 fluorescence intensity (a.u.)
CTTATCTTTCTTTATGTTGTTGCTACGAAGGTATAGACTTCGGAGTCACCTAGTGCAG | 9340 fluorescence intensity (a.u.)
GTTGGGAGGAGGGCAAGGTGCTTAGGGTTTTACATTTCACCGGAGTCACCTAGTGCAG | 10600 fluorescence intensity (a.u.)
TGATGTTGTATTCCGAGGAAGACCACCTTCAATTGCTTCACGGAGTCACCTAGTGCAG | 8260 fluorescence intensity (a.u.)
CTCATCAGTGATGAGGCCTTCAACAATCCATCGTCTTACTCGGAGTCACCTAGTGCAG | 8230 fluorescence intensity (a.u.)
GTCCACGTTGCCCATCTTCTCGTGTACTACTCTGGCTGGCCGGAGTCACCTAGTGCAG | 8860 fluorescence intensity (a.u.)
TTCTCATCTCAATCCCATATTCCCATCCTTATCTTCGGTTCGGAGTCACCTAGTGCAG | 8900 fluorescence intensity (a.u.)
CTTTGTTGCACTTTTTCGTATTGGAGTGTTTTATTCTTTCCGGAGTCACCTAGTGCAG | 8760 fluorescence intensity (a.u.)
TTTATACCAAAGGCCATTTTCTGTTGCATTGAGTGGTTGCCGGAGTCACCTAGTGCAG | 9400 fluorescence intensity (a.u.)
GCGCTAGAGTCCTTACTAAATTTTGCAGTTCTAGAAGCTTCGGAGTCACCTAGTGCAG | 9350 fluorescence intensity (a.u.)
AAGCTATGATACATATTACTCTTTTACGGTTCTACTATAGCGGAGTCACCTAGTGCAG | 8670 fluorescence intensity (a.u.)
ACTGTATCATCATTGATTTGTGTTGATGTTCTTACTTATACGGAGTCACCTAGTGCAG | 8490 fluorescence intensity (a.u.)
TTCGTTCGTCCCACCGCTGCTGCATGCCATCCCTGACACCCGGAGTCACCTAGTGCAG | 10100 fluorescence intensity (a.u.)
TCTTCGTAATGTTTTTCTCCTTCTCCATGTGGGCGCCCATCGGAGTCACCTAGTGCAG | 9620 fluorescence intensity (a.u.)
